These are yes or no findings as the source states them, for the method shown. In cells and extracts the contact can be indirect. A yes stands for co-enrichment or nearness to the bait. Other partners may have been found. Where a sequence is shown, tags or fusion partners need not be part of it.

Assay [1] has as its target T1, PURB fused to eGFP (human (SupT1 cDNA or available template plasmids)) (UniProt Q96QR8).
T1 sequence: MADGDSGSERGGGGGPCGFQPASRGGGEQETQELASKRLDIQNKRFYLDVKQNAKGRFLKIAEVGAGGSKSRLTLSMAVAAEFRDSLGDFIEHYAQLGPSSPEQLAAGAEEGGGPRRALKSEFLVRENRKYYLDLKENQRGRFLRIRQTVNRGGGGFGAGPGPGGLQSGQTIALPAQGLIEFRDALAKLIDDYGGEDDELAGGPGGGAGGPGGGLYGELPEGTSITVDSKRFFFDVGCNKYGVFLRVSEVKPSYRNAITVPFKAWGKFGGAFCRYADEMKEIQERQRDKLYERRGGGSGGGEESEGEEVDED
In words: affinity purification with mass spectrometry.

The target of assay [2] is T2, PURA fused to eGFP (human (SupT1 cDNA or available template plasmids)) (UniProt Q00577).
T2 sequence: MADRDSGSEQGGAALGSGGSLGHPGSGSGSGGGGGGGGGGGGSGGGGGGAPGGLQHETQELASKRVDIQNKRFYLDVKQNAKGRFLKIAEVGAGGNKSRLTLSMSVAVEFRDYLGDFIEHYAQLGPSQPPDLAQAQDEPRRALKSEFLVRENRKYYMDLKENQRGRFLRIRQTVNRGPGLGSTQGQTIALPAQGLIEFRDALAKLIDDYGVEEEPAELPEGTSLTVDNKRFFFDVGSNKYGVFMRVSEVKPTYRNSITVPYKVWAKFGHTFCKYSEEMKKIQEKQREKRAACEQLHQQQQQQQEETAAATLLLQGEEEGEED
In words: affinity purification with mass spectrometry.

Turning to “HIV-1 RNase H p15 (from UniProt P12497 1028-1147) (domain or fragment)”, the binding entry in assay [1] and in assay [2] was “binds” in each case.

Values taken from paper doi:10.1101/2023.06.14.544764.
